# Assay results published in PubChem BioAssay AID192 (DTP/NCI, 2004).
# The list shows only some results of the screen, not a fair sample: its compounds were picked by chemical class. Not every dose and run of a compound is shown. T/C: endpoint of the treated group in % of that of the vehicle group. Some doses have a count of surviving animals in place of a T/C: the source holds a T/C of zero for them, seemingly a mark for toxic or unscored doses. Some doses without a T/C left all or most animals alive at the check, yet need not have been tolerated: survival well below the control is almost never listed, so the zero probably covers shortened survival too. Counts of survivors are from the toxicity check (mostly the fifth day) where no day follows; animals may have died later. Schedules are NCI's codes, read here as Q, the interval in days (D) or hours (H), X, the number of doses. Some entries hold several experiments; the values are given in rising order. Where survival is the endpoint, this PubChem deposit counts one and a half times the control or more as active, and values a quarter to a half above the control carry no call in these data; other NCI protocols may use other cut-offs. Some T/C values are followed by the survivors on the day toxicity was checked, most often the fifth; where neither a count nor a note follows, no animal had died by that day.
# Tested on: BDF1 mice, B16 melanoma ip, median survival T/C
# Assay: NCI In Vivo Anticancer Drug Screen. Data for tumor model B16 Melanoma (intraperitoneal) in B6D2F1 (BDF1) mice
# Settings: T/C endpoint: median survival time, higher T/C = longer survival
# Description: The antitumor activity of compounds was measured in mice bearing transplantable tumors. Survival or tumor size were measured and the results are expressed as the measurement made in the treated group (T) divided by the measurement made in the vehicle treated control group (C). The tumor model used in this assay is B16 Melanoma (intraperitoneal) in B6D2F1 (BDF1) mice
# [1] = dose: 100.0 mg/kg/injection, schedule: Q01DX009 (ip), vehicle: Klucel (hydroxypropylcellulose) (HPC)
# [2] = dose: 25.0 mg/kg/injection, schedule: Q01DX009 (ip), vehicle: saline
# [3] = dose: 50.0 mg/kg/injection, schedule: Q01DX009 (ip), vehicle: saline
# [4] = dose: 100.0 mg/kg/injection, schedule: Q01DX009 (ip), vehicle: saline
# [5] = dose: 6.25 mg/kg/injection, schedule: Q01DX009 (ip), vehicle: Klucel (hydroxypropylcellulose) (HPC)
# [6] = dose: 12.5 mg/kg/injection, schedule: Q01DX009 (ip), vehicle: Klucel (hydroxypropylcellulose) (HPC)
# [7] = dose: 25.0 mg/kg/injection, schedule: Q01DX009 (ip), vehicle: Klucel (hydroxypropylcellulose) (HPC)
# [8] = dose: 50.0 mg/kg/injection, schedule: Q01DX009 (ip), vehicle: Klucel (hydroxypropylcellulose) (HPC)
# [9] = dose: 10.0 mg/kg/injection, schedule: Q01DX009 (ip), vehicle: Klucel (hydroxypropylcellulose) (HPC)
# [10] = dose: 20.0 mg/kg/injection, schedule: Q01DX009 (ip), vehicle: Klucel (hydroxypropylcellulose) (HPC)
# [11] = dose: 40.0 mg/kg/injection, schedule: Q01DX009 (ip), vehicle: Klucel (hydroxypropylcellulose) (HPC)
# [12] = dose: 80.0 mg/kg/injection, schedule: Q01DX009 (ip), vehicle: Klucel (hydroxypropylcellulose) (HPC)
# [13] = dose: 100.0 mg/kg/injection, schedule: Q04DX003 (ip), vehicle: saline
# [14] = dose: 12.5 mg/kg/injection, schedule: Q01DX009 (ip), vehicle: saline
smiles,measurement,setting,value
ClCCNc1nc2ccc(Cl)cc2c2ccccc12,T/C,"dose: 0.08 mg/kg/injection, schedule: Q01DX009 (ip), vehicle: saline",89 % of control
same,T/C,"dose: 0.15 mg/kg/injection, schedule: Q01DX009 (ip), vehicle: saline",100 % of control
same,T/C,"dose: 0.3 mg/kg/injection, schedule: Q01DX009 (ip), vehicle: saline",97 % of control
same,T/C,"dose: 0.6 mg/kg/injection, schedule: Q01DX009 (ip), vehicle: saline",89 % of control
same,T/C,"dose: 1.25 mg/kg/injection, schedule: Q01DX009 (ip), vehicle: saline with Tween-80",97 % of control
same,T/C,"dose: 2.5 mg/kg/injection, schedule: Q01DX009 (ip), vehicle: saline with Tween-80",100 % of control
same,T/C,"dose: 5.0 mg/kg/injection, schedule: Q01DX009 (ip), vehicle: saline with Tween-80",97 % of control
same,T/C,"dose: 10.0 mg/kg/injection, schedule: Q01DX009 (ip), vehicle: saline with Tween-80",88 % of control
same,T/C,"dose: 5.0 micrograms/kg/injection, schedule: Q01DX009 (ip), vehicle: saline",97 % of control
same,T/C,"dose: 10.0 micrograms/kg/injection, schedule: Q01DX009 (ip), vehicle: saline",102 % of control
same,T/C,"dose: 20.0 micrograms/kg/injection, schedule: Q01DX009 (ip), vehicle: saline",97 % of control
same,T/C,"dose: 40.0 micrograms/kg/injection, schedule: Q01DX009 (ip), vehicle: saline",92 % of control
COP(OC)c1ccc(C)cc1,T/C,[1],105 % of control
same,T/C,"dose: 200.0 mg/kg/injection, schedule: Q01DX009 (ip), vehicle: Klucel (hydroxypropylcellulose) (HPC)",118 % of control
same,T/C,"dose: 400.0 mg/kg/injection, schedule: Q01DX009 (ip), vehicle: Klucel (hydroxypropylcellulose) (HPC)",102 % of control [9 of 10 alive]
CCOC(=O)C(CCSC)NC(=O)OCCNCCCl (centres undefined),T/C,[2],105 % of control
same,T/C,[3],114 % of control
same,T/C,[4],111 % of control
Nc1cc([As]=O)ccc1O (centres undefined),T/C,"dose: 12.5 mg/kg/injection, schedule: Q02DX009 (ip), vehicle: saline with Tween-80",110 % of control
same,T/C,"dose: 25.0 mg/kg/injection, schedule: Q02DX009 (ip), vehicle: saline with Tween-80",110 % of control
same,survivor count,"dose: 50.0 mg/kg/injection, schedule: Q02DX009 (ip), vehicle: saline with Tween-80",8 of 10
same,survivor count,"dose: 75.0 mg/kg/injection, schedule: Q02DX009 (ip), vehicle: saline with Tween-80",7 of 10
O=C1NC(=O)C(c2cccc(N(CCCl)CCCl)c2)N1 (centres undefined),T/C,[5],101 % of control
same,T/C,[6],101 % of control
same,T/C,[7],104 % of control
same,T/C,[8],101 % of control
same,T/C,[1],104 % of control
C1C[N-]1.C1C[N-]1.[Cl][Pt+2][Cl],T/C,"dose: 0.62 mg/kg/injection, schedule: Q01DX009 (ip), vehicle: saline",117 % of control
same,T/C,"dose: 1.25 mg/kg/injection, schedule: Q01DX009 (ip), vehicle: saline",115 % of control
same,T/C,"dose: 2.5 mg/kg/injection, schedule: Q01DX009 (ip), vehicle: Klucel (hydroxypropylcellulose) (HPC)",100 and 110 % of control
same,T/C,"dose: 2.5 mg/kg/injection, schedule: Q01DX009 (ip), vehicle: saline",112 % of control
same,T/C,"dose: 5.0 mg/kg/injection, schedule: Q01DX009 (ip), vehicle: Klucel (hydroxypropylcellulose) (HPC)",97 and 110 % of control
same,T/C,"dose: 5.0 mg/kg/injection, schedule: Q01DX009 (ip), vehicle: saline",133 % of control
same,T/C,[9],105 and 115 % of control [9 of 10 alive]
same,T/C,"dose: 10.0 mg/kg/injection, schedule: Q01DX009 (ip), vehicle: saline",161 % of control
same,T/C,"dose: 10.0 mg/kg/injection, schedule: Q04DX003 (ip), vehicle: Klucel (hydroxypropylcellulose) (HPC)",94 % of control [8 of 10 alive]
same,survivor count,[10],10 of 10
same,survivor count,"dose: 20.0 mg/kg/injection, schedule: Q01DX009 (ip), vehicle: saline",10 of 10
same,T/C,"dose: 20.0 mg/kg/injection, schedule: Q04DX003 (ip), vehicle: Klucel (hydroxypropylcellulose) (HPC)",97 % of control [9 of 10 alive]
same,survivor count,[11],9 of 10 and 10 of 10
same,survivor count,"dose: 40.0 mg/kg/injection, schedule: Q01DX009 (ip), vehicle: saline",9 of 10
same,T/C,"dose: 40.0 mg/kg/injection, schedule: Q04DX003 (ip), vehicle: Klucel (hydroxypropylcellulose) (HPC)",105 % of control [8 of 10 alive]
same,survivor count,[12],0 of 10
same,survivor count,"dose: 80.0 mg/kg/injection, schedule: Q01DX009 (ip), vehicle: saline",1 of 10
same,T/C,"dose: 80.0 mg/kg/injection, schedule: Q04DX003 (ip), vehicle: Klucel (hydroxypropylcellulose) (HPC)",123 % of control
same,survivor count,"dose: 160.0 mg/kg/injection, schedule: Q04DX003 (ip), vehicle: Klucel (hydroxypropylcellulose) (HPC)",5 of 10
ClC1(Cl)SC(Cl)(Cl)C(Cl)(Cl)C1(Cl)Cl,T/C,[5],100 % of control [9 of 10 alive]
same,T/C,[6],102 % of control [9 of 10 alive]
same,T/C,[7],94 % of control [9 of 10 alive]
same,T/C,[8],100 % of control [9 of 10 alive]
same,survivor count,[1],7 of 10
CC(O)CN(CCO)CC(C)O (centres undefined),T/C,"dose: 66.0 mg/kg/injection, schedule: Q04DX003 (ip), vehicle: saline",99 % of control
same,T/C,[13],99 % of control
same,T/C,"dose: 150.0 mg/kg/injection, schedule: Q04DX003 (ip), vehicle: saline",102 % of control
CCCCO[P+](=O)OCCCC,T/C,[14],105 % of control
same,T/C,[2],105 % of control
same,T/C,"dose: 25.0 mg/kg/injection, schedule: Q04DX003 (ip), vehicle: saline",98 % of control
same,T/C,[3],104 % of control
same,T/C,"dose: 50.0 mg/kg/injection, schedule: Q04DX003 (ip), vehicle: saline",98 % of control
same,T/C,[13],97 % of control
Cc1ccc(CNCCCl)cc1,T/C,"dose: 25.0 mg/kg/injection, schedule: Q04DX003 (ip), vehicle: Klucel (hydroxypropylcellulose) (HPC)",94 % of control
same,T/C,"dose: 50.0 mg/kg/injection, schedule: Q04DX003 (ip), vehicle: Klucel (hydroxypropylcellulose) (HPC)",105 % of control
same,T/C,"dose: 100.0 mg/kg/injection, schedule: Q04DX003 (ip), vehicle: Klucel (hydroxypropylcellulose) (HPC)",94 % of control
same,T/C,"dose: 200.0 mg/kg/injection, schedule: Q04DX003 (ip), vehicle: Klucel (hydroxypropylcellulose) (HPC)",107 % of control
N=C(N[N+](=O)[O-])N(CCN1CCN=C1N[N+](=O)[O-])N=O,T/C,"dose: 25.0 mg/kg/injection, schedule: Q01DX009 (ip), vehicle: saline with Tween-80",100 % of control
same,T/C,"dose: 50.0 mg/kg/injection, schedule: Q01DX009 (ip), vehicle: saline with Tween-80",98 % of control
same,T/C,"dose: 100.0 mg/kg/injection, schedule: Q01DX009 (ip), vehicle: saline with Tween-80",93 % of control
O=P(Cl)(Cl)NC12CC3CC(CC(C3)C1)C2,T/C,[7],100 % of control [9 of 10 alive]
same,T/C,[8],100 % of control
same,survivor count,[1],4 of 10
CC1C(c2ccccc2)OCCN1C (centres undefined),T/C,[14],116 % of control
same,survivor count,[2],9 of 10
same,T/C,[3],117 % of control
same,T/C,[4],102 % of control
same,T/C,"dose: 200.0 mg/kg/injection, schedule: Q01DX009 (ip), vehicle: saline",97 % of control [9 of 10 alive]
ClCCNc1nc2ccccc2c2ccccc12,T/C,[9],106 % of control
same,T/C,[10],106 % of control
same,T/C,[11],110 % of control
same,survivor count,[12],1 of 6
